Assay results published in BindingDB's records for PubMed 8632342 (Eli Lilly, 1996).

Sequences of proteins named here, by UniProt entry; tags and fusion partners are left off.
UniProt P41595, whole entry: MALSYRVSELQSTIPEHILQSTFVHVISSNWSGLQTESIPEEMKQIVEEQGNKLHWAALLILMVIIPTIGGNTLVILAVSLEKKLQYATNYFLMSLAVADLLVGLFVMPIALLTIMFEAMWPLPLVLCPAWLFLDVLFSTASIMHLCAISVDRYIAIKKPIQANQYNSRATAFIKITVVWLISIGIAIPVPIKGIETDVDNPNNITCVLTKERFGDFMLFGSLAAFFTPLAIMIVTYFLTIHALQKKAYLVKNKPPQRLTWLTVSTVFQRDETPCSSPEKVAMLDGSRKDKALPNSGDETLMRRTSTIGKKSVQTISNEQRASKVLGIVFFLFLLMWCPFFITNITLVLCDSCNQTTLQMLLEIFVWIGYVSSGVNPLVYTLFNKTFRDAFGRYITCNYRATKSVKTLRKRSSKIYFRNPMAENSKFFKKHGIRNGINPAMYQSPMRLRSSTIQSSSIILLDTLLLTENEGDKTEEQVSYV

Target: 5-hydroxytryptamine receptor 2B (Homo sapiens, UniProt P41595)

Compound: CC[C@@H](CO)NC(=O)[C@@H]1C=C2c3cccc4c3c(cn4C)C[C@H]2N(C)C1
- Ki: 1.59 nM
